What all share (experiment): co-IP
One experiment concerns the target T1, EGFP-SadB-WT (mouse) (UniProt Q5RJI5).
T1 sequence: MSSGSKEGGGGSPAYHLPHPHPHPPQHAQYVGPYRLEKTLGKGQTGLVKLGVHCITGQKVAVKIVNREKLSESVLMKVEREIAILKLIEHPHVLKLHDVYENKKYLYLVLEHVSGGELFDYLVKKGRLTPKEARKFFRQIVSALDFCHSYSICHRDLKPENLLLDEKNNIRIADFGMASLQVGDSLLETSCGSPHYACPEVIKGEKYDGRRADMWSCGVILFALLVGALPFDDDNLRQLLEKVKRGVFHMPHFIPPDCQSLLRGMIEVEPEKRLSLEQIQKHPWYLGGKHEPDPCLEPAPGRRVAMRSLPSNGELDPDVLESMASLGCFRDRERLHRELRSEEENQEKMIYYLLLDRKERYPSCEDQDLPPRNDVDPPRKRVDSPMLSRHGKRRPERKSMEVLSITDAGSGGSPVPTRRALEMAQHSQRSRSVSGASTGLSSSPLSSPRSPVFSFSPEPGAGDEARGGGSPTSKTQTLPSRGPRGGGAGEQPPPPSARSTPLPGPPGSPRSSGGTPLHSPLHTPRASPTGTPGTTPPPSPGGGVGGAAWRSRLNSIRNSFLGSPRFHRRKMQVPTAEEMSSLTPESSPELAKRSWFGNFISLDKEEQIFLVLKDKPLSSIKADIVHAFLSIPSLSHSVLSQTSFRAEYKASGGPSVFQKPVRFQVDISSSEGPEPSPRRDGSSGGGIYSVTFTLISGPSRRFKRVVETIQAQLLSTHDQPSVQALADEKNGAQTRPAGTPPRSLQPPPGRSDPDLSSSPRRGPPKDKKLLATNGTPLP

Experiment [1] has as its target T2, SadA Kinase-UBA fragment (19-342 aa) in psfGFP-C1 (mouse) (UniProt Q69Z98).
T2 sequence: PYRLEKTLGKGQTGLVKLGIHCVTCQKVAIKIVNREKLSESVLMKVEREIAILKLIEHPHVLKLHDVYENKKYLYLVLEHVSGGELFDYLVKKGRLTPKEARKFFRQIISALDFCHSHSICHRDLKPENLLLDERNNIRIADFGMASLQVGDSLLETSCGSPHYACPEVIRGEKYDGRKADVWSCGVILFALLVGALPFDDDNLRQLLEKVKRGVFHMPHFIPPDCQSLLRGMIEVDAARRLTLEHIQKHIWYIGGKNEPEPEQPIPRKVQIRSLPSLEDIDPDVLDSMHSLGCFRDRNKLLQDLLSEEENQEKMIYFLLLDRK

Experiment [2] addresses T3, SadB AIS-KA1 fragment (359-715 aa) in psfGFP-C1 (mouse) (UniProt Q5RJI5).
T3 sequence: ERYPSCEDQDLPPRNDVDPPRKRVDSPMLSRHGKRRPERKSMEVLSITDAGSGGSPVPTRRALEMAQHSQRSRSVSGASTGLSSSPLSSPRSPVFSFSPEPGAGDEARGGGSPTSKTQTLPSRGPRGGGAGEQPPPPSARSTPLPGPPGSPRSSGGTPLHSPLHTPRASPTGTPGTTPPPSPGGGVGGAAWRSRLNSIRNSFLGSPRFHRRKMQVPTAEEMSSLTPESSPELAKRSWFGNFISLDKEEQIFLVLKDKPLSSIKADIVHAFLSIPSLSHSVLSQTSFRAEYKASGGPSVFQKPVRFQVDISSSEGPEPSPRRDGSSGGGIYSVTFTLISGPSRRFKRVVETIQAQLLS

Experiment [3] addresses T4, SadA AIS-KA1 fragment (343-636 aa) in psfGFP-C1 (mouse) (UniProt Q69Z98).
T4 sequence: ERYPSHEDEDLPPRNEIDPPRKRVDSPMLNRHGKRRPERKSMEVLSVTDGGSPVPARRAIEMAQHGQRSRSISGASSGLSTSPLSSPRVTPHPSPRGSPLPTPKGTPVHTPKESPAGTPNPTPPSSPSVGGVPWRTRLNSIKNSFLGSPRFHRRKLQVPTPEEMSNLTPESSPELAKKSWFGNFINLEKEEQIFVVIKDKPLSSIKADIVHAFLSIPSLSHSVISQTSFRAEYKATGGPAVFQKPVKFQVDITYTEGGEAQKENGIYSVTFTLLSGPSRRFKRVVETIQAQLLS

Experiment [4] has as its target T5, SadB Kinase-UBA fragment (33-358 aa) in psfGFP-C1 (mouse) (UniProt Q5RJI5).
T5 sequence: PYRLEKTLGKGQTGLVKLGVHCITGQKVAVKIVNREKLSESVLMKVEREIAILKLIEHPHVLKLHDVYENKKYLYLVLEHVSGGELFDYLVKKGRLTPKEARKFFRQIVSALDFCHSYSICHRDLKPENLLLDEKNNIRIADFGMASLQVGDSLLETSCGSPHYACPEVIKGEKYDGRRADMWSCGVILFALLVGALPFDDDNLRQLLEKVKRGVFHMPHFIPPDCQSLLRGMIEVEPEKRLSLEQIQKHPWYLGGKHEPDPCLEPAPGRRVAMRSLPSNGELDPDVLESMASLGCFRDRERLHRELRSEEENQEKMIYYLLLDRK

A further experiment addresses T6, EGFP-SadA-WT (mouse) (UniProt Q69Z98).
T6 sequence: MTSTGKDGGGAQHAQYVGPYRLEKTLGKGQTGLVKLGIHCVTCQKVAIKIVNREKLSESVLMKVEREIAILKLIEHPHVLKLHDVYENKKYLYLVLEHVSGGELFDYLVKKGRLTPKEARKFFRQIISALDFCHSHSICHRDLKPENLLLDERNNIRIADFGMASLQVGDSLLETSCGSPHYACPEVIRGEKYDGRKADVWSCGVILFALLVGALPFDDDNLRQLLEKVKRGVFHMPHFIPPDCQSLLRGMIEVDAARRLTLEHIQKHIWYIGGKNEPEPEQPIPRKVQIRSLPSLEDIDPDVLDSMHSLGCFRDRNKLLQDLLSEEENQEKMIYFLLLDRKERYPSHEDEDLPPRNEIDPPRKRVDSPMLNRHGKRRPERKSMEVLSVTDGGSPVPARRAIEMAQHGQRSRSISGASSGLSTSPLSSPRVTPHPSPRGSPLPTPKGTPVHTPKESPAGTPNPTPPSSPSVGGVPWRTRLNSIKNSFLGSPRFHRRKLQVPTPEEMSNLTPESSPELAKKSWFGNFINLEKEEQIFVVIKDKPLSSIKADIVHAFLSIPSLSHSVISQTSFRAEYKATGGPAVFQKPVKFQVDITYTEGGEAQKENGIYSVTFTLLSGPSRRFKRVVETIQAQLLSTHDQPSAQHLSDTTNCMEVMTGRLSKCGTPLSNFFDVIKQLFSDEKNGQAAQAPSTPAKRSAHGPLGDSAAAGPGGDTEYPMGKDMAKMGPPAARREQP

No constants are given. Whether binding was seen depends on the method and setting. Binding seen in cells or lysates may run through a third protein. For part of these data: A result given as binding can be weak or reduced; the word gives no strength. Sequences can lack the tags named with a protein.

Consider “HA-AnkB (Ankyrin B, from pAnkyrinB-2HA) (from UniProt Q01484-2)”, for which the binding entry is “binds” in the experiment with EGFP-SadB-WT (mouse); “binds” in experiment [1]; “no binding” in experiment [2]; “no binding” in experiment [3]; “binds” in experiment [4]; “binds” in the experiment with EGFP-SadA-WT (mouse).
